Source: patent US20230287363, “DNA POLYMERASE, APTAMER, WARM-START DNA POLYMERASE AND PREPARATION METHODS AND APPLICATION THEREOF” (Sun Yat-Sen University, published 2023)
For some of these results: Negatives hold for the conditions tested. Protein sequences can lack the tags named with them. For some of these results: Weaker means in comparison with the reference protein, sequence or condition of that experiment. For some of these results: For at least one entry, the source does not settle the construct or the ends of the probe.

Assays:
[1] = tested on: T1, RHAU23-Bst (DHX36 RHAU23 peptide fused to N-terminus of Bst-LF) (Homo sapiens / Geobacillus stearothermophilus); experiment: inhibition of the protein; conditions: purified recombinant protein, protein details: His-tag, pCold-I, E. coli BL21, folded or branched DNA, dose not given here
T1 sequence: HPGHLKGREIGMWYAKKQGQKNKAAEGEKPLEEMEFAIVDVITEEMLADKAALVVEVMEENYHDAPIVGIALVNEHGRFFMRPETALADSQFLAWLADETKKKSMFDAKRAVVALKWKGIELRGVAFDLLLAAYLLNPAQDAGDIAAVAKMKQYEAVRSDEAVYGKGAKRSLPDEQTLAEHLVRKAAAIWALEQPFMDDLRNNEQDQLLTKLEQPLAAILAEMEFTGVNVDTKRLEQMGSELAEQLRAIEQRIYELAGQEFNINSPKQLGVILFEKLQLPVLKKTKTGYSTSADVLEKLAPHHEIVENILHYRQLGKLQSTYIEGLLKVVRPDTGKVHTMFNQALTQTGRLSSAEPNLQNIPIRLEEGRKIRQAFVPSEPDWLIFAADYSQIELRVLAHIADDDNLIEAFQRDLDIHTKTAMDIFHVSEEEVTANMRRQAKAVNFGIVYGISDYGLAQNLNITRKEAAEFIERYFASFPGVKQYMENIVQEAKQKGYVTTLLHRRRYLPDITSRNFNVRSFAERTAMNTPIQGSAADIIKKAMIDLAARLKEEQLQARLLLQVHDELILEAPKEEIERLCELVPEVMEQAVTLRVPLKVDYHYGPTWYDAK

[2] = tested on: T1, RHAU23-Bst (DHX36 RHAU23 peptide fused to N-terminus of Bst-LF) (Homo sapiens / Geobacillus stearothermophilus); experiment: EMSA; conditions: range over HG53, GH5, HG3; K+ buffer, 4 C; purified recombinant protein; protein details: His-tag, pCold-I, E. coli BL21; label: 5'-FAM (EMSA); folded or branched DNA
[3] = tested on: T2, G4P-Bst (G4P peptide fused to N-terminus of Bst-LF) (Homo sapiens / Geobacillus stearothermophilus); experiment: inhibition of the protein; conditions: purified recombinant protein, protein details: His-tag, pCold-I, E. coli BL21, label: 5'-FAM (EMSA), dose not given here
T2 sequence: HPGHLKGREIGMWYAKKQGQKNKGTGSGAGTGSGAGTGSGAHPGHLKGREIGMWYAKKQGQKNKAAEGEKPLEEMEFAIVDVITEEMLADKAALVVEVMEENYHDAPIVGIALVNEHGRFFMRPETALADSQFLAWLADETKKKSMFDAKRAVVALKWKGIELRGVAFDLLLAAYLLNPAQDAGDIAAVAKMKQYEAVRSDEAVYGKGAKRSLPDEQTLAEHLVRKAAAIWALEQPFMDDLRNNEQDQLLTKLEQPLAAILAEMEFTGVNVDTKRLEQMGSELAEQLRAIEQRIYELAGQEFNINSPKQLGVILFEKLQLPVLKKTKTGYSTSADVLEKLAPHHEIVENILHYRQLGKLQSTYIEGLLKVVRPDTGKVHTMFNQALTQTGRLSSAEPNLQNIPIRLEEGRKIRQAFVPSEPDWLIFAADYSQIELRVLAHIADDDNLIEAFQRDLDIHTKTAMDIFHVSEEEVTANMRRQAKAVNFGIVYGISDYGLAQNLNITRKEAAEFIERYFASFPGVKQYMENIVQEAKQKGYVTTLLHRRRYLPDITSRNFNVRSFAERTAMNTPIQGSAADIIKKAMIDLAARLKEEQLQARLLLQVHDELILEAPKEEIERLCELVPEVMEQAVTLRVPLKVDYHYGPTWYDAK

[4] = tested on: T2, G4P-Bst (G4P peptide fused to N-terminus of Bst-LF) (Homo sapiens / Geobacillus stearothermophilus); experiment: EMSA; conditions: purified recombinant protein, protein details: His-tag, pCold-I, E. coli BL21, label: 5'-FAM (EMSA)
[5] = tested on: T3, Bst-LF (Bst DNA polymerase large fragment) (Geobacillus stearothermophilus); experiment: inhibition of the protein; conditions: no modulation of polymerase activity; purified recombinant protein; protein details: His-tag, pCold-I, E. coli BL21; label: 5'-FAM (EMSA); folded or branched DNA; dose not given here
T3 sequence: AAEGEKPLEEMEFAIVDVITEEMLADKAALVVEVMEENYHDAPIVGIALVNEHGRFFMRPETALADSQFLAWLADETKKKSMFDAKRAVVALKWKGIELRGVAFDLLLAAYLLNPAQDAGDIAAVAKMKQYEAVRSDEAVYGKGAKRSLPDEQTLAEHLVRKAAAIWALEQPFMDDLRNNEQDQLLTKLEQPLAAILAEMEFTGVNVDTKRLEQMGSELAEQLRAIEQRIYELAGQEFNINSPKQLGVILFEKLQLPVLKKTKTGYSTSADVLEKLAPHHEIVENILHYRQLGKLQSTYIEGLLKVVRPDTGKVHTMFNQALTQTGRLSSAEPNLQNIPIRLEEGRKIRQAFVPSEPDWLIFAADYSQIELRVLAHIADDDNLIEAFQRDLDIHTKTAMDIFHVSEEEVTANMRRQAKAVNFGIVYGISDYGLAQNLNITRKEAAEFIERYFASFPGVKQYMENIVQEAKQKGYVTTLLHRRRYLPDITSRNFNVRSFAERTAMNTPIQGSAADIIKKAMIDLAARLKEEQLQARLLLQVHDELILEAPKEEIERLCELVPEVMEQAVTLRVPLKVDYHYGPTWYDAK

[6] = tested on: T3, Bst-LF (Bst DNA polymerase large fragment) (Geobacillus stearothermophilus); experiment: EMSA; conditions: binding significantly reduced without G4-binding peptide; purified recombinant protein; protein details: His-tag, pCold-I, E. coli BL21; label: 5'-FAM (EMSA); folded or branched DNA
[7] = strong inhibition at 25 C for at least 40 min, full recovery at 65 C, label: 5'-FAM (EMSA)
[8] = effective inhibition at 25 C, enzyme:aptamer 1:2, variant of HG53 (HG53-H8/T10)
[9] = effective (loop 6 nt or more), 25 C, variant of HG53 (HG53-H8/T10)
[10] = inhibited at least 40 min at 25 C, 1:2, variant of HG53 (HG53-H8/T10)
[11] = primer extension, activity almost completely restored at 65 C, label: 5'-FAM (EMSA)
[12] = almost complete inhibition at 25 C, still inhibited at 65 C, folded or branched DNA
[13] = range over six G4 DNAs, K+ buffer, 4 C, folded or branched DNA
[14] = ratio-dependent partial inhibition at 25 C, almost recovered at 65 C, folded or branched DNA
[15] = primer extension almost unaffected at 25 C or 65 C, folded or branched DNA

## AAGTTTTGGTGGGTGGGTGGGATCAGACCAGTTTTCTGGTCTG [GH5]
[1]; [7]
  functional effect of the aptamer: active
[2]
  binding result: binds

## ACTATGGAACAGTTATACGCAAGTATTTTTTTTTTTTTTTTTTTTTGAATTCACTAGCTGTCTGCTTCAGG / TGATACCTTGTCAATATGCGTTCATAAAAAAAAAAAAAAAAAAAAACTTAAGTGATCGACAGACGAAGTCC [non-G4 dsDNA]
[3]; no modulation of polymerase activity
  functional effect of the aptamer: less active
[4]; binding significantly reduced without G4
  binding result: binds more weakly

## ACTATGGAACAGTTATACGCAAGTATTTTTTTTTTTTTTTTTTTTTGAATTCACTAGCTGTCTGCTTCAGG [non-G4 ssDNA]
[3]; no modulation of polymerase activity, single-stranded DNA
  functional effect of the aptamer: less active
[4]; binding significantly reduced without G4, single-stranded DNA
  binding result: binds more weakly

## CAGACCAGAAATTTTTTTTTTACTGGTCTG [HG53-non-G4]
[1]; G4 deletion: no inhibition, 25 C, variant of HG53 (HG53-H8/T10)
  functional effect of the aptamer: not active

## CAGACCAGAAGGGAGGGCGGCGGGGCATTGATTTTTTTTTTACTGGTCTG [HG53-PDGFR]
[1]; [8]
  functional effect of the aptamer: active

## CAGACCAGAAGGGCGGGCGCGAGGGAGGGATTTTTTTTTTACTGGTCTG [HG53-KIT]
[1]; [8]
  functional effect of the aptamer: active

## CAGACCAGAAGGGGCGGGGCGCGGGGCGGGGATTTTTTTTTTACTGGTCTG [HG53-CSTB]
[1]; [8]
  functional effect of the aptamer: active

## CAGACCAGAAGTGGTGGGTGGGTGGGATTTTTTTTTTACTGGTCTG [HG53-T1B1]
[1]; [8]
  functional effect of the aptamer: active

## CAGACCAGAAGTTTTAATAAATAAATAAAATTTTTTTTTTACTGGTCTG [HG53-mut-G4]
[1]; G4 mutation: no inhibition, 25 C, variant of HG53 (HG53-H8/T10)
  functional effect of the aptamer: not active

## CAGACCAGAAGTTTTGGTGGGTGGGTGGGATTTTTTACTGGTCTG [HG53-T6]
[1]; [9]
  functional effect of the aptamer: active

## CAGACCAGAAGTTTTGGTGGGTGGGTGGGATTTTTTTTACTGGTCTG [HG53-T8]
[1]; [9]
  functional effect of the aptamer: active

## CAGACCAGAAGTTTTGGTGGGTGGGTGGGATTTTTTTTTTACTGGTCTG [HG53 (HG53-H8/T10)]
[1]; [7]
  functional effect of the aptamer: active
[2]
  binding result: binds

## CAGACCAGAAGTTTTGGTGGGTGGGTGGGATTTTTTTTTTTTACTGGTCTG [HG53-T12]
[1]; [9]
  functional effect of the aptamer: active

## CAGACCAGAATTTTTGGGTGGTGGGTGGGATTTTTTTTTTACTGGTCTG [HG53-GVBQ2]
[1]; [10]
  functional effect of the aptamer: active

## CAGACCAGAATTTTTGGTGGGTGGGTGGGATTTTTTTTTTACTGGTCTG [HG53-GVBQ1]
[1]; inhibited at least 40 min at 25 C, greatly inhibited below 30 C, variant of HG53 (HG53-H8/T10)
  functional effect of the aptamer: active

## CAGACCAGAATTTTTGGTTGGTGGGTGGGATTTTTTTTTTACTGGTCTG [HG53-G12]
[1]; [10]
  functional effect of the aptamer: active

## CAGACCAGTTTTCTGGTCTGAAGTTTTGGTGGGTGGGTGGGAT [HG3]
[1]; [7]
  functional effect of the aptamer: active
[2]
  binding result: binds

## CCTGAAGCAGACAGCTAGTGAATTCGGGAGGGCGGCGGGGCAGGGTACTTGCGTATAACTGTTCCATAGT / ACTATGGAACAGTTATACGCAAGTATTTTTTTTTTTTTTTTTTTTTGAATTCACTAGCTGTCTGCTTCAGG [PDGFRB-Fd-G4]
[1]; [11]
  functional effect of the aptamer: active
[3]; [12]
  functional effect of the aptamer: active
[4]; [13]
  binding result: binds

## CCTGAAGCAGACAGCTAGTGAATTCGGGAGGGCGGCGGGGCAGGGTACTTGCGTATAACTGTTCCATAGT [PDGFRB-Fs-G4]
[3]; [14]
  functional effect of the aptamer: active
[4]; [13]
  binding result: binds

## CCTGAAGCAGACAGCTAGTGAATTCGTTTTGGTGGGTGGGTGGGTACTTGCGTATAACTGTTCCATAGT / ACTATGGAACAGTTATACGCAAGTATTTTTTTTTTTTTTTTTTTTTGAATTCACTAGCTGTCTGCTTCAGG [T4B1-Fd-G4]
[1]; [11]
  functional effect of the aptamer: active
[5]
  functional effect of the aptamer: less active
[3]; [12]
  functional effect of the aptamer: active
[6]
  binding result: binds more weakly
[4]; [13]
  binding result: binds

## CCTGAAGCAGACAGCTAGTGAATTCGTTTTGGTGGGTGGGTGGGTACTTGCGTATAACTGTTCCATAGT [T4B1-Fs-G4]
[5]
  functional effect of the aptamer: less active
[3]; [14]
  functional effect of the aptamer: active
[6]
  binding result: binds more weakly
[4]; [13]
  binding result: binds

## GGGAGGGCGGCGGGGCAGGG [PDGFRB-core G4]
[3]; [15]
  functional effect of the aptamer: active
[4]; [13]
  binding result: binds

## GTTTTGGTGGGTGGGTGGG [T4B1-core-G4]
[3]; [15]
  functional effect of the aptamer: active
[4]; [13]
  binding result: binds
